This experiment concerns the target extracellular signal-regulated kinase 2 (ERK2), unphosphorylated (UniProt P63086). As to the kind of experiment: SAXS; unphosphorylated ERK2 incubated 1:1 with STEP 213-539 at room temperature for 30 min, complex purified by SEC (Superdex 75 26/60); 50 mM HEPES pH 6.8, 150 mM NaCl, 5 mM dithiothreitol; 0.7, 1.2 and 1.7 mg/ml; both purified. On the technique in general: Size exclusion chromatography separates by hydrodynamic size, large species first.

Chains of the proteins cited; added tags and fusions are not shown.
UniProt P63086: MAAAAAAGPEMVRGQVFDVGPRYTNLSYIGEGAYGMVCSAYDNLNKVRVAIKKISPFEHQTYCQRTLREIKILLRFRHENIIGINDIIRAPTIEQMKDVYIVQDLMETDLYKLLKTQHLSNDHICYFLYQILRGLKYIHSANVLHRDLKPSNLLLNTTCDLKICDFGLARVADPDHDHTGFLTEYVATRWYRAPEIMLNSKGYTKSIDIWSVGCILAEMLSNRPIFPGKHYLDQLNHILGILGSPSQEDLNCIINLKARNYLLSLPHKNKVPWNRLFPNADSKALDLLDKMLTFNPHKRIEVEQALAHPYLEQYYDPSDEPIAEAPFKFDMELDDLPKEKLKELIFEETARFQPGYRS

Our source for the binding values is publication PMC3956856, “Interaction of Kinase-Interaction-Motif Protein Tyrosine Phosphatases with the Mitogen-Activated Protein Kinase ERK2” (PLoS ONE, 2014).

Results are given in words; binding and its absence hold for the method and conditions named. Some results given as binding are weak or reduced against the parent protein; the word gives no strength.

B1: STEP (residues 213-539, mouse) (domain or fragment, UniProt P54830 213-539, looked up)
chain: MGLQERRGSNVSLTLDMCTPGCNEEGFGYLVSPREESAHEYLLSASRVLRAEELHEKALDPFLLQAEFFEIPMNFVDPKEYDIPGLVRKNRYKTILPNPHSRVRLTSPDPEDPLSSYINANYIRGYSGEEKVYIATQGPIVSTVADFWRMVWQERTPIIVMITNIEEMNEKCTEYWPEEQVVHDGVEITVQKVIHTEDYRLRLISLRRGTEERSLKHYWFTSWPDQKTPDRAPPLLHLVREVEEAAQQEGPHCSPIIVHCSAGIGRTGCFIATSICCQQLRREGVVDILKTTCQLRQDRGGMIQTCEQYQFVHHAMSLYEKQLSLQS
notes: STEP (PTPN5, striatal enriched protein tyrosine phosphatase), mouse, residues 213-539 (KIM, KIS and catalytic domain); The results loosely call this construct 'full-length STEP'; the construct is residues 213-539; also called STEP_(213-539); PTPN5; source: final SEC
In the case of B1, the binding result is given as “binds”.
